For series [1], the system named is anti-penicillin antibodies. The experiment in a line: Compound microarray, detection with anti-penicillin antibodies (Examples 3 and 4, clone not stated). Format: binding. As to conditions: immobilized onto a glass slide.
The subject of series [2] is anti-gentamycin antibodies. The experiment in a line: Compound microarray, detection of immobilized compound with anti-gentamycin antibodies. Format: binding, mouse. As to conditions: immobilized onto a glass slide. The method, then:
Further, compounds of bovine serum albumin (BSA) covalently bonded to these 14 compounds in advance (Imgen BioSciences) were printed on glass slides as control samples for comparison. The compounds mixed with HSA were each dissolved in solution A for protein microarrays only (Fukushima Protein Factory) to a concentration of 0.5 mM. Furthermore, HSA was prepared and mixed with the solutions A including the compounds, bringing the final concentrations to 0.1 micrograms/microliter. It should be noted that the printing of each compound on a glass slide was performed by spotting microdroplets of approximately 2 to 4 nl on the glass slide by using an ultratrace dispensing system (Micro Diagnostic).
The compound microarrays printed with the compounds were immersed in ethanol and shaken for 30 seconds at room temperature. Subsequently, the compound microarrays were immersed in ultrapure water and shaken for 30 seconds at 26° C. It should be noted that the shaking by ultrapure water was performed twice. For solution replacement, the compound microarrays were immersed in solution A for protein microarrays only (Fukushima Protein Factory, Fukushima, Japan) and shaken for about five minutes at 26° C.
The compound microarrays treated as described above were immersed in Blocking One (Nacalai Tesque, Kyoto, Japan) and shaken for one hour at 26° C. Subsequently, the compound microarrays were immersed in solution A for protein microarrays only and shaken for about five minutes at 26° C.
Using a solution obtained by adding 1/4000 volume of Goat Reference Antibody Mixture I (Fukushima Protein Factory) to the primary antibody diluent for protein microarrays only (Fukushima Protein Factory), one of eight mouse monoclonal anti-compound antibodies (Table 2) was diluted to 1 microgram/milliliter.
Two milliliters of the solution with the diluted primary antibody were added to a P-DE1 cassette for protein microarrays (Fukushima Protein Factory). The compound microarrays were immersed therein, the lid of the cassette was placed thereon, the cassette was sealed with a special clip, and reactions were permitted with shaking for about 17 hours at 37° C.
After the reaction with the primary antibody, the compound microarrays were immersed in solution A for protein microarrays only and shaken for one minute at 26° C. It should be noted that this process was repeated three times.
1/500 volume of Cy3-labeled anti-goat IgG (Jackson) and Alexa Fluor 647-labeled anti-mouse IgG antibody (Jackson) were added to a secondary antibody diluent for protein microarrays only, and 2 milliliters of the solution were added to a P-DE1 cassette for protein microarrays. The compound microarrays were immersed therein, the lid of the cassette was placed thereon, the cassette was sealed with a special clip, and reactions were permitted with shaking for about one hour at 26° C.
After the reaction with the secondary antibodies, the compound microarrays were immersed in solution A for protein microarrays only and shaken for one minute at 26° C. It should be noted that this process was repeated three times.
It should be noted that this process was repeated three times.

Where [3] appears, read: compound mixed with holo-transferrin.
Setting [4] is: compound mixed with ovalbumin (egg white).
The mark [5] stands for this setting: compound mixed with apo-transferrin.

Turning to `CC1(C)S[C@@H]2[C@H](NC(=O)Cc3ccccc3)C(=O)N2[C@H]1C(=O)[O-].[Na+]` [penicillin G sodium], the “signal intensity relative to the compound mixed with HSA” value is given as “approximately 1.2 times” in series [1] (setting [3]), “approximately 1.6 times” in series [1] (setting [4]) and “approximately 2.3 times” in series [1] (compound mixed with ovalbumin).
For `CC1(C)S[C@@H]2[C@H](NC(=O)Cc3ccccc3)C(=O)N2[C@H]1C(=O)O` [benzyl penicillin potassium], the “signal intensity relative to the compound mixed with HSA” value in series [1] (setting [5]) is “approximately 1.3 times”; in series [1] (setting [3]), “approximately 1.3 times”; in series [1] (setting [4]), “approximately 2.1 times”; in series [1] (compound mixed with ovalbumin), “approximately 1.8 times”.
In the case of gentamycin sulfate, the “signal intensity relative to the compound mixed with HSA” value in series [2] (compound mixed with alpha 2-macroglobulin) was “approximately 1.7 times”; in series [2] (setting [5]) it was “approximately 2.4 times”; in series [2] (compound mixed with lysozyme (ThermoPhage)), “approximately 1.4 times”; in series [2] (compound mixed with lysozyme (egg allergen)), “approximately 1.4 times”; in series [2] (setting [4]) it was “approximately 5.6 times”; in series [2] (compound mixed with ovalbumin) it was “approximately 3.0 times”.

Values taken from US20230194511A1, “Compound Fixing Method, Detection Method, Screening Method, Substrate Used in Same, Compound Fixing Agent, and Fixing Kit” (priority 2020, published 2023).
